{
  "sequences": {"note": "Sequences of proteins named here, by UniProt entry; tags and fusion partners are left off. Residues count along the entry.", "UniProt Q9QZQ1, residues 6-370": "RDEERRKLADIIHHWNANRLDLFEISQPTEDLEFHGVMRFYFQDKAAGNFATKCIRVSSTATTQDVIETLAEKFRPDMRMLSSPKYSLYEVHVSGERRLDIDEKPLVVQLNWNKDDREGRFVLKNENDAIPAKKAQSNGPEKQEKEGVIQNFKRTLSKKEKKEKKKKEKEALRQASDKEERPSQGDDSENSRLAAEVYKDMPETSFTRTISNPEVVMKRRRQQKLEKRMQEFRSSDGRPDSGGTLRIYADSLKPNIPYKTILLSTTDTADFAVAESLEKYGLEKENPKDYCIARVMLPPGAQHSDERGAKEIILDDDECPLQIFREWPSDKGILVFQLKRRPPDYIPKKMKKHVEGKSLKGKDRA"},
  "source": "paper PMC9355967",
  "target": "GST-AFDN RA1/2 (dual RA domains, residues 6-370) (mouse) (UniProt Q9QZQ1)",
  "assay": "pull-down; GST-tagged RA/RBD domains purified from bacteria on glutathione beads mixed with lysates of cells expressing GTPases; beads washed 5X; anti-GFP blot; only the target purified",
  "note": "No constants are given. Whether binding was seen depends on the method and setting. Binding seen in cells or lysates may run through a third protein. Some binding calls cover weakened binding; strength is not graded here. Where a sequence is shown, tags or fusion partners need not be part of it.",
  "data": [
    {"binder": "EGFP-RAP2C-G12V (protein, UniProt Q9Y3L5 1-183) MREYKVVVLGSVGVGKSALTVQFVTGTFIEKYDPTIEDFYRKEIEVDSSPSVLEILDTAGTEQFASMRDLYIKNGQGFILVYSLVNQQSFQDIKPMRDQIVRVKRYEKVPLILVGNKVDLEPEREVMSSEGRALAQEWGCPFMETSAKSKSMVDELFAEIVRQMNYSSLPEKQDQCCTTCVVQ", "values": [
      {"measurement": "binding", "value": "binds"}
    ]}
  ]
}
